Results from PMC9559323.
No constants are given. Whether binding was seen depends on the method and setting. Binding seen in cells or lysates may run through a third protein. For some assays here: A yes stands for co-enrichment or nearness to the bait. Other partners may have been found. For some assays here: No binding means not detected with the bait. For some assays here: Where a sequence is shown, tags or fusion partners need not be part of it.

Legend:
[1] = molecular target: translocated EspH_(Δ130-168) (SBP-tagged) (enteropathogenic Escherichia coli (EPEC)); assay: affinity purification with mass spectrometry; HeLa cells infected 90 min at 37°C with EPEC strains; SBP-tagged translocated EspH precipitated from lysates (50 mM Tris pH 7.4, 150 mM NaCl, 0.5% NP-40) with StAv agarose beads, 4 hrs at 4°C; on-bead digestion, LC-MS/MS, label-free quantification
[2] = molecular target: translocated EspH_(Δ130-168) (SBP-tagged) (enteropathogenic Escherichia coli (EPEC)); assay: pull-down; HeLa (or Caco-2BBe) cells, untransfected or transfected with HA-tagged ABR constructs, infected with EPEC strains; SBP-tagged translocated EspH precipitated with StAv agarose beads; co-precipitated ABR detected by immunoblot (anti-ABR or anti-HA)
[3] = molecular target: EspH_(Δ130-168)-eGFP (enteropathogenic Escherichia coli (EPEC)); assay: co-IP; HeLa cells co-transfected with eGFP constructs and HA-tagged ABR; lysates (10 mM Tris pH 7.4, 150 mM NaCl, 0.5% NP-40) incubated with GFP-Trap agarose beads 4 hrs at 4°C; immunoblot with anti-eGFP and anti-HA

B1: endogenous active Bcr related (ABR) protein (protein, UniProt Q12979 1-859)
chain: MEPLSHRGLPRLSWIDTLYSNFSYGTDEYDGEGNEEQKGPPEGSETMPYIDESPTMSPQLSARSQGGGDGVSPTPPEGLAPGVEAGKGLEMRKLVLSGFLASEEIYINQLEALLLPMKPLKATATTSQPVLTIQQIETIFYKIQDIYEIHKEFYDNLCPKVQQWDSQVTMGHLFQKLASQLGVYKAFVDNYKVALETAEKCSQSNNQFQKISEELKVKGPKDSKDSHTSVTMEALLYKPIDRVTRSTLVLHDLLKHTPVDHPDYPLLQDALRISQNFLSSINEDIDPRRTAVTTPKGETRQLVKDGFLVEVSESSRKLRHVFLFTDVLLCAKLKKTSAGKHQQYDCKWYIPLADLVFPSPEESEASPQVHPFPDHELEDMKMKISALKSEIQKEKANKGQSRAIERLKKKMFENEFLLLLNSPTIPFRIHNRNGKSYLFLLSSDYERSEWREAIQKLQKKDLQAFVLSSVELQVLTGSCFKLRTVHNIPVTSNKDDDESPGLYGFLHVIVHSAKGFKQSANLYCTLEVDSFGYFVSKAKTRVFRDTAEPKWDEEFEIELEGSQSLRILCYEKCYDKTKVNKDNNEIVDKIMGKGQIQLDPQTVETKNWHTDVIEMNGIKVEFSMKFTSRDMSLKRTPSKKQTGVFGVKISVVTKRERSKVPYIVRQCVEEVEKRGIEEVGIYRISGVATDIQALKAVFDANNKDILLMLSDMDINAIAGTLKLYFRELPEPLLTDRLYPAFMEGIALSDPAAKENCMMHLLRSLPDPNLITFLFLLEHLKRVAEKEPINKMSLHNLATVFGPTLLRPSEVESKAHLTSAADIWSHDVMAQVQVLLYYLQHPPISFAELKRNTLYFSTDV
binding [1]: no binding
binding [2]: no binding

B2: HA-tagged full-length (FL) human ABR (protein, UniProt Q12979 1-859)
chain: MEPLSHRGLPRLSWIDTLYSNFSYGTDEYDGEGNEEQKGPPEGSETMPYIDESPTMSPQLSARSQGGGDGVSPTPPEGLAPGVEAGKGLEMRKLVLSGFLASEEIYINQLEALLLPMKPLKATATTSQPVLTIQQIETIFYKIQDIYEIHKEFYDNLCPKVQQWDSQVTMGHLFQKLASQLGVYKAFVDNYKVALETAEKCSQSNNQFQKISEELKVKGPKDSKDSHTSVTMEALLYKPIDRVTRSTLVLHDLLKHTPVDHPDYPLLQDALRISQNFLSSINEDIDPRRTAVTTPKGETRQLVKDGFLVEVSESSRKLRHVFLFTDVLLCAKLKKTSAGKHQQYDCKWYIPLADLVFPSPEESEASPQVHPFPDHELEDMKMKISALKSEIQKEKANKGQSRAIERLKKKMFENEFLLLLNSPTIPFRIHNRNGKSYLFLLSSDYERSEWREAIQKLQKKDLQAFVLSSVELQVLTGSCFKLRTVHNIPVTSNKDDDESPGLYGFLHVIVHSAKGFKQSANLYCTLEVDSFGYFVSKAKTRVFRDTAEPKWDEEFEIELEGSQSLRILCYEKCYDKTKVNKDNNEIVDKIMGKGQIQLDPQTVETKNWHTDVIEMNGIKVEFSMKFTSRDMSLKRTPSKKQTGVFGVKISVVTKRERSKVPYIVRQCVEEVEKRGIEEVGIYRISGVATDIQALKAVFDANNKDILLMLSDMDINAIAGTLKLYFRELPEPLLTDRLYPAFMEGIALSDPAAKENCMMHLLRSLPDPNLITFLFLLEHLKRVAEKEPINKMSLHNLATVFGPTLLRPSEVESKAHLTSAADIWSHDVMAQVQVLLYYLQHPPISFAELKRNTLYFSTDV
binding [2]: no binding
binding [3]: no binding

B3: Rab12 (protein, UniProt Q6IQ22 1-340)
chain: MLLPLLRSSCFPSSSPGGGGGSGGGGGGGDPGAESRPAAQLQRGAHGPPGPLQRAEAEPGADPPRAAEAEGAPGPGARSRGAGGGGRRAEREPHACMDPGAALQRRAGGGGGLGAGSPALSGGQGRRRKQPPRPADFKLQVIIIGSRGVGKTSLMERFTDDTFCEACKSTVGVDFKIKTVELRGKKIRLQIWDTAGQERFNSITSAYYRSAKGIILVYDITKKETFDDLPKWMKMIDKYASEDAELLLVGNKLDCETDREITRQQGEKFAQQITGMRFCEASAKDNFNVDEIFLKLVDDILKKMPLDILRNELSNSILSLQPEPEIPPELPPPRPHVRCC
binding [1]: binds
